Measured values: US20110171220A1
These are yes or no findings as the source states them, for the method shown. Some entries that bind do so weakly or less than the wild type.

Chains of the proteins cited; added tags and fusions are not shown. Lines headed by an entry give the natural chain unless they say otherwise; changes in a name come on top.
UniProt Q15116: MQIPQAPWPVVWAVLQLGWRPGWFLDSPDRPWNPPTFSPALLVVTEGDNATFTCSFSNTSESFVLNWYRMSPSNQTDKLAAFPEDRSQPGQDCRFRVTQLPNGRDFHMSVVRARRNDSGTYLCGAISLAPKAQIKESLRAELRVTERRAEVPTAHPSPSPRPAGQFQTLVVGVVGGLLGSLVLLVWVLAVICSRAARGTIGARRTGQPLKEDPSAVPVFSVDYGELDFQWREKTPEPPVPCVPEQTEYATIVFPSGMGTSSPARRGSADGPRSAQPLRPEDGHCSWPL
UniProt P31041: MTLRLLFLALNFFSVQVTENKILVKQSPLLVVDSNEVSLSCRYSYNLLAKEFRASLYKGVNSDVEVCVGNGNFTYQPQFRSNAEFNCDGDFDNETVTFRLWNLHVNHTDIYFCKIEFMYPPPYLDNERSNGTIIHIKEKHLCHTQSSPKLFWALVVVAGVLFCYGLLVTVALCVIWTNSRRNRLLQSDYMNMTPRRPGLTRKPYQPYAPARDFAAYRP

B1: Clone 19 anti-PD-1 antibody (antibody, IgG1, V domains shown)
VH: QVQLQQSGAELVKPGASVKMSCKAFGYTFTTYPIEWMKQNHGKSLEWIGNFHPYNDDTKYNEKFKGKAKLTVEKSSTTVYLELSRLTSDDSAVYYCARENYGSHGGFVYWGQGTLVTV
VL: ENVLTQSPAIMSASPGEKVTMTCRASSSVISSYLHWYQQKSGASPKLWIYSTSNLASGVPDRFSGSGSGTSYSLTISSVEAEDAATYYCQQYNGYPLTFGAGTKLEIK
B2: Clone 10 anti-PD-1 antibody (antibody, IgG1, V domains shown)
VH: DVQLQESGPGLVKPSQSLSLTCTVTGYSITSDYAWNWIRQFPGNKLEWMGYINYSGSTSYNPSLKSRISITRDTSKNQFFLQLNSVTTEDTATYYCARWIGSSAWYFDVWGAGTTVTV
VL: DVLMTQTPLSLPVSLGDQASISCRSGQNIVHSNGNTYLEWYLQKPGQSPKLLIYKVSNRFFGVPDRISGSGSGTDFTLKISRVEAEDLGVYFCFQGSHVPFTFGSGTKLEIK
B3: Clone 2 anti-PD-1 antibody (antibody, V domains shown)
VH: QVQLQQPGAELVKPGASVKLSCKASGYTFTTYYLYWVRQRPGQGLEWIGGINPSNGGTNFNEKFKSKATLTVDKSSSTAYMQLNSLTSEDSAVYYCTRRDYRYDRGFDYWGQGTSVTV
VL: DIVLTQSPASLAVSLGQRATISCRASKSVSTSGFNYIHWYQQKPGQPPKLLIYLASNLESGVPARFSGSGSGTDFTLNIHPVEDEDAATYYCQHSRELPLTFGAGTKLEIK

Key:
[1] = molecular target: T1, human PD-1 extracellular region with the transmembrane and intracellular regions of murine CD28, expressed on HEK-293T cells (wild type) (human; mouse) (UniProt Q15116+P31041); test: flow cytometry on transfected HEK-293T cells
[2] = molecular target: T1, human PD-1 extracellular region with the transmembrane and intracellular regions of murine CD28, expressed on HEK-293T cells (wild type) (human; mouse); test: antibody binding analysis on HEK 293T cells expressing PD-1 and its single-residue mutants

Binder | binding [1] | binding [2]
B1 | binds | –
B2 | binds | binds
B3 | – | binds
